# From paper doi:10.1101/2022.06.11.495646
# Columns and labels:
# [1] = biological target: V5-tagged SMRTER DAD domain (Drosophila); assay: co-IP
# [2] = biological target: V5-tagged full length SMRTER (Drosophila); assay: co-IP
binding [1],binding [2],Binder
binds,binds,"HA-tagged wild-type Drosophila HDAC3 (enzyme, UniProt Q7KTS4 1-438) MTDRRVSYFYNADVGNFHYGAGHPMKPQRLAVTHSLVMNYGLHKKMKIYRPYKASAQDMLRFHSDEYIAYLQQVTPQNIQCNSVAYTKYLAHFSVGEDCPVFDGLFDFCAMYTGASLEGAQKLNHNHSDICINWSGGLHHAKKFEASGFCYVNDIVIGILELLKYHPRVLYIDIDVHHGDGVQEAFYLTDRVMTASFHKYGNYFFPGTGDMYEIGAESGRYYSVNVPLKEGIDDQSYFQVFKPIISAIMDFYRPTAIVLQCGADSLAGDRLGCFSLSTKGHGECVKFVKELNVPTLVVGGGGYTLRNVARCWTHETSLLVDQDIENDLPATEYYDFFAPDFTLHPEINSRQDNANSKQYLELIVKHVYENLKMCQHSPSVQMVQTPPDVDLEELRSNREEASDPDVRISVADEDKLVDAKNEFYDGDQDQDKPDSAES"
binds,binds,"HA-tagged Drosophila HDAC3 Y303F mutant (enzyme, UniProt Q7KTS4 1-438) MTDRRVSYFYNADVGNFHYGAGHPMKPQRLAVTHSLVMNYGLHKKMKIYRPYKASAQDMLRFHSDEYIAYLQQVTPQNIQCNSVAYTKYLAHFSVGEDCPVFDGLFDFCAMYTGASLEGAQKLNHNHSDICINWSGGLHHAKKFEASGFCYVNDIVIGILELLKYHPRVLYIDIDVHHGDGVQEAFYLTDRVMTASFHKYGNYFFPGTGDMYEIGAESGRYYSVNVPLKEGIDDQSYFQVFKPIISAIMDFYRPTAIVLQCGADSLAGDRLGCFSLSTKGHGECVKFVKELNVPTLVVGGGGFTLRNVARCWTHETSLLVDQDIENDLPATEYYDFFAPDFTLHPEINSRQDNANSKQYLELIVKHVYENLKMCQHSPSVQMVQTPPDVDLEELRSNREEASDPDVRISVADEDKLVDAKNEFYDGDQDQDKPDSAES"
binds,binds,"HA-tagged Drosophila HDAC3 K26A mutant (enzyme, UniProt Q7KTS4 1-438) MTDRRVSYFYNADVGNFHYGAGHPMAPQRLAVTHSLVMNYGLHKKMKIYRPYKASAQDMLRFHSDEYIAYLQQVTPQNIQCNSVAYTKYLAHFSVGEDCPVFDGLFDFCAMYTGASLEGAQKLNHNHSDICINWSGGLHHAKKFEASGFCYVNDIVIGILELLKYHPRVLYIDIDVHHGDGVQEAFYLTDRVMTASFHKYGNYFFPGTGDMYEIGAESGRYYSVNVPLKEGIDDQSYFQVFKPIISAIMDFYRPTAIVLQCGADSLAGDRLGCFSLSTKGHGECVKFVKELNVPTLVVGGGGYTLRNVARCWTHETSLLVDQDIENDLPATEYYDFFAPDFTLHPEINSRQDNANSKQYLELIVKHVYENLKMCQHSPSVQMVQTPPDVDLEELRSNREEASDPDVRISVADEDKLVDAKNEFYDGDQDQDKPDSAES"

# Results are given in words; binding and its absence hold for the method and conditions named. Binding seen in cells or lysates may run through a third protein. Binding can be weak; no strength is given. Sequences can lack the tags named with a protein.
